# Library screen at single concentrations

Mtb cholesterol medium: 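Growth of Mycobacterium tuberculosis over 4 days (cholesterol / DPPC medium with tyloxapol); the read-out is not stated. Concentration: 50 µM. Direction is inferred from retests: higher values go with more growth inhibition. Of about 69,000 compounds tested this way, about 370 (0.54%) reached 50% or more in at least one test.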
Mtb glucose medium: 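Growth of Mycobacterium tuberculosis over 3 days (7H9 medium with glucose and tyloxapol); the read-out is not stated. Concentration: 50 µM. Higher reads as more growth inhibition (inferred: compounds with an IC50 in retests scored well above the rest). About 69,000 compounds were tested under these conditions; 1.1% (about 760) showed 50% or more at least once.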

Results are given as percent effect.
The record does not define 0% and 100%; most values in the screen are far below 50% and negative numbers occur (in some assays of this library far below -100).
The compounds are a random part of those screened.
Two or more numbers in one place are separate tests of the same structure; such repeats can differ widely.

| # | structure | Mtb cholesterol medium | Mtb glucose medium |
|---|---|---|---|
| 1 | `CCn1c2c(ccc1=O)CC(NCc1cnn(C)c1)CC2` (stereo not shown) | -7.467% | -0.1481% |
| 2 | `O=C(COc1ccccc1)NCCNC(=O)c1scnc1Cl` | 17.86% | 5.819% |
| 3 | `Cc1cnn(C2(C(=O)O)CCN(c3ccnc4cc(Cl)ccc34)CC2)c1` | -33.38% | -48.24% |
| 4 | `O=C(O)C1(Oc2cccc(F)c2)CCN(c2ccncc2)CC1` | -9.532% and 1.439% | -1.962% |
| 5 | `Cc1nc(C2CCCN(C(=O)c3ccc(S(C)(=O)=O)cc3)C2)no1` (stereo not shown) | -4.651% | 93.51% |
| 6 | `CC(C)O[C@H]1CN(C(=O)CCN2CCCCO2)C[C@@H]1O` | -20.25% | -35.16% and -9.103% |
| 7 | `NC(=O)c1cc2c(nc1CCOc1ccc(F)cc1)CCC2` | -24.43% | -30.22% and -7.646% |
| 8 | `CC(=O)Nc1nc(C(=O)N2CCC(Nc3cccnn3)CC2)cs1` | 11.53% | -2.369% |
| 9 | `Cn1nnc2c1CCN(C(C(=O)N1CCCCC1)c1ccccc1)C2` (stereo not shown) | 1.534% | -1.947% |
| 10 | `Cc1ccc(CNC(=O)NC2CCCN(c3ncccn3)C2)n1C` (stereo not shown) | -16.19% | -32.24% |
| 11 | `[H][C@@]12CCN(C(=O)c3nnc4n3CCCC4)C[C@@]([H])(CC1)N2C` | -26.29% | -22.63% |
| 12 | `CCCNC(=O)Nc1cc2c(cc1SC)OCCO2` | 1.752% and 4.991% | 21.15% |
| 13 | `Cc1ccc(C2(O)CCN(C(=O)c3ccc(S(N)(=O)=O)cc3)CC2)nc1` | -1.367% | 3.404% |
| 14 | `COCCNC(=O)Cn1c(-c2ccc(F)cc2)nc(C)c(CCO)c1=O` | 2.517% | -3.452% |
| 15 | `CCc1cc(NCCCOC2CCCC2)ncn1` | 11.09% | 4.776% |
| 16 | `COCCO[C@H]1CCN(c2cc(OC)ncn2)[C@H]1Cc1cnn(C)c1` | 1.157% | 31.66% and 8.074% |
| 17 | `O=C(O)CCn1ccc(=O)c2cc(F)ccc21` | -7.069% | 5.389% |
| 18 | `O=C(O)C(F)(F)F.[H][C@]12CN(C(=O)c3cncc(C)c3)C[C@@]1([H])OCCN(S(C)(=O)=O)C2` | 3.337% | 0.8088% |
| 19 | `O=C(CO)N1CCCC(c2cc(C(F)(F)F)[nH]n2)C1` (stereo not shown) | 3.001% | 3.665% |
| 20 | `c1cncc(-n2cnnc2CC2CCNCC2)c1` | 7.972% | 8.4% |
| 21 | `CC(C)NC(=O)N1CCN(CCn2cccn2)c2ncccc2C1.O=C(O)C(F)(F)F` | 9.391% | -2% |
| 22 | `Cc1oc(-c2ccco2)nc1CC(=O)N1CCN(CC(C)O)CC1` (stereo not shown) | -18.84% | -42.31% |
| 23 | `CCc1cnc(NCc2ccccc2Cn2cccn2)nc1` | -7.726% | 46.05% |
| 24 | `N#Cc1ccc(NCCCOCC2CCOC2)c(F)c1` (stereo not shown) | 2.252% | -39.36% |
| 25 | `CCCSCC(=O)Nc1ncn(CC(=O)NCc2ccccc2)n1` | 15.06% | 9.768% |
| 26 | `Cc1nc(C(C)(C)NCc2nnc(C(C)C)o2)sc1C` | -5.022% | -5.763% and -0.1811% |
| 27 | `CCCn1nccc1C(=O)N1CCCN(CCCc2ccccc2)CC1` | -2.78% | 11.17% |
| 28 | `CCN(CC1CCCN(CCc2cccc(OC)c2)C1)C(=O)CO` (stereo not shown) | -9.765% and -6.861% | 9.386% |
| 29 | `CO[C@H]1CN(C)S(=O)(=O)[C@@]12CCN(Cc1ccccc1)C2` | 2.523% | 7.34% |
| 30 | `NC(=O)Cn1cc(NC(=O)N2CCSCC2)cn1` | 13.36% | -37.82% |
| 31 | `CC(C)N1Cc2c(C(=O)N3CCOCC3)nn(C)c2C1.O=C(O)C(F)(F)F.O=C(O)C(F)(F)F` | 10.03% | 11.65% |
| 32 | `CSCc1cc(F)ccc1CNC(=O)N1CCC[C@@H]1CO` | -3.427% and -15.32% | 5.523% |
| 33 | `CCNC(=O)CNC(=O)c1ccn(S(=O)(=O)c2ccc(C)cc2)c1` | 13.36% | -10.22% |
| 34 | `O=C(NCC1CCCO1)c1cc(Sc2ncccn2)ccn1` (stereo not shown) | -1.229% | -12.28% and 3.227% |
| 35 | `Cc1nc(N2CCOCC2)sc1C(=O)NCC(C)(C)N1CCCCC1` | -15.35% | -8.718% |
| 36 | `COc1ncccc1NC(=O)NC(C)(C)c1ncc(C)s1` | -18.12% | -43.35% |
| 37 | `COc1ccc(Cl)cc1-n1nc(C2CCCC2)nc1Cn1cnnn1` | 4.348% | 7.661% and 6.87% |
| 38 | `O=C(O)C(F)(F)F.[H][C@@]12CCN(c3cnccn3)C[C@]1([H])CN(C(=O)C1CCCO1)C2` (stereo partly shown) | -7.215% and -5.271% | -8.551% |
| 39 | `CCCS(=O)(=O)N1CC(=O)N(Cc2ccccc2OC)CC(O)C1` (stereo not shown) | -9.165% | -12.56% |
| 40 | `O=C(O)C(F)(F)F.O=C(O)C(F)(F)F.O=C(O)C(F)(F)F.[H][C@@]12CCN(Cc3ccccn3)[C@@]1([H])CC(=O)N2Cc1cccnc1` | -7.401% | 18.65% |
| 41 | `Cn1c(-c2ccccc2Cl)nc2cc(C(=O)NCC3(CO)CC3)cnc21` | 3.849% | 6.557% and 13.19% |
| 42 | `COc1cc(CNCc2ccc(-n3nc(C)cc3C)nc2)cc(OC)c1` | -5.501% | 15.79% |
| 43 | `CC1CN(C)CCN1C(=O)c1ccn(-c2ccccc2Cl)n1` (stereo not shown) | -40.8% | 16.78% |
| 44 | `Cc1ncc(CNCC(=O)NC2CCCCC2)n1-c1ccccc1` | 2.103% | -2.146% |
| 45 | `[H][C@@]12CCN(Cc3ccoc3)[C@]1([H])CC[C@H](C(=O)NCC1CC1)O2` | 11.22% | 27.1% |
| 46 | `Cc1nc2n(n1)CC(NCc1cnn(-c3ccccc3)n1)CC2` (stereo not shown) | 1.944% | 5.596% |
| 47 | `Cc1cccnc1CN(C)C(C(=O)O)c1ccc(C(C)(C)C#N)cc1` (stereo not shown) | 7.131% | 39.86% |
| 48 | `Cc1nc(-c2ccc(CC(=O)N3CCN(C(=O)C(C)C)CC3)cc2)cs1` | -26.8% | -7.96% |
| 49 | `CNc1cc(C2CN(Cc3csc(C)n3)CCO2)nc(C)n1` (stereo not shown) | 5.613% | 10.8% |
| 50 | `c1ccc(CN2Cc3ccnn3CC(COCc3cccnc3)C2)nc1` (stereo not shown) | 3.862% and 4.531% | 7.805% and 6.832% |
| 51 | `c1cnnc(N2CCCC2CNCc2nnc(C3CC3)o2)c1` (stereo not shown) | 3.723% and -5.583% | 3.432% |
| 52 | `O=C(Cc1c[nH]c(=O)[nH]c1=O)N1CCCCC1CCc1cccc(O)c1` (stereo not shown) | 2.483% | -4.891% and -11.79% |
| 53 | `CCN1CCN(C[C@@H]2CN(c3ncccc3Cl)C[C@@H]2CO)CC1` | -24.26% | -12.08% |
| 54 | `O=C(O)C(F)(F)F.[H][C@]12CCC[C@@H](CN3CCOCC3)[C@@]1([H])CN(c1cc(OC)ncn1)C2` | -20.85% | 20.96% |
| 55 | `COCCNc1ccccc1CNC(=O)NCc1cnc(C)s1` | 1.958% | -11.8% |
| 56 | `NCC(CO)Cc1cccc(OC(F)(F)F)c1` (stereo not shown) | -5.569% | 0.02184% |
| 57 | `c1cc2nc(C3CCNCC3)nn2cc1NC1CCC1` | -15.49% | 10.46% |
| 58 | `O=C(C1CCCCC1)N1CCCC([C@@H]2C[C@H](C(F)F)n3ncnc3N2)C1` (stereo partly shown) | -1.397% and -1.526% | 3.309% |
| 59 | `CCn1ccnc1CN(C)c1nc(-c2ccc(Cl)cc2)nc2c1CNC2` | -14.08% | 0.187% |
| 60 | `Cc1cnc2c(c1NCc1ccccn1)c(=O)n(C)c(=O)n2C` | -23.24% | -5.914% |
| 61 | `NC(=O)[C@H]1CCCN1C(=O)c1csc(-c2ccc(C(F)(F)F)cc2)n1` | 10.18% | 5.153% |
| 62 | `Cn1cc(CN2CCC3(CCCN(Cc4ccccn4)C3)CC2)cn1` | -3.064% | 22.95% |
| 63 | `Cc1ccc2[nH]c(CN3CC[C@@H](N4CCN(C)CC4)[C@H](O)C3)c(C)c2c1` | -9.748% | -15.84% |
| 64 | `CN(C)C(=O)Cc1ccccc1NCc1cccc(F)c1F` | 11.13% | -31.23% |
| 65 | `CNc1cncc(C2CCCN2C(=O)c2ccc3c(c2)OCCO3)n1` (stereo not shown) | -1.352% | 2.007% |
| 66 | `Cc1cc(CN(C)C(=O)c2ccc(OC(C)C)nc2)no1` | 11.7% | 14.1% |

The first 4 entries again:

* CCn1c2c(ccc1=O)CC(NCc1cnn(C)c1)CC2 (stereo not shown) | Mtb cholesterol medium: -7.467%; Mtb glucose medium: -0.1481%
* O=C(COc1ccccc1)NCCNC(=O)c1scnc1Cl | Mtb cholesterol medium: 17.86%; Mtb glucose medium: 5.819%
* Cc1cnn(C2(C(=O)O)CCN(c3ccnc4cc(Cl)ccc34)CC2)c1 | Mtb cholesterol medium: -33.38%; Mtb glucose medium: -48.24%
* O=C(O)C1(Oc2cccc(F)c2)CCN(c2ccncc2)CC1 | Mtb cholesterol medium: -9.532% and 1.439%; Mtb glucose medium: -1.962%

Data taken from ChEMBL document CHEMBL3988442, “University of Dundee, Small-Polar-MMV Screening Library” (2021).